Source: ChEMBL document CHEMBL3988442, “University of Dundee, Small-Polar-MMV Screening Library” (2021).

Results are given as percent effect.
How 0% and 100% were set is not recorded. Most values in the screen are low, and negative values occur.
Compounds were drawn at random from those tested, without regard to their results.

A: 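Whole-cell assay for inhibitors of Mycobacterium tuberculosis growth, labelled Cornell in the record; the read-out is not stated. The concentration is filed as 10 mM, unlikely as a test dose, so the dose is not known. Higher means stronger inhibition (inferred from two other growth screens of the library). Size under these conditions: about 53,000 compounds, about 900 of them at 50% or above in at least one test.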
B: 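Assay on Mycobacterium tuberculosis, filed only as a heat shock assay from Cornell; the read-out is not stated. The concentration is filed as 10 mM, unlikely as a test dose, so the dose is not known. Higher reads as stronger inhibition (inferred: compounds with an IC50 in retests scored well above the rest). Of about 69,000 compounds tested this way, about 930 (1.4%) reached 50% or more in at least one test.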

SMILES: CN1C(=O)CC(c2ccccc2)C12CCN(CCO)CC2.O=C(O)C(F)(F)F (stereo unspecified)
A: -35.18
B: 13.27

SMILES: CCCc1nnc(N2CC[C@@](O)(C3CCOCC3)[C@H](C)C2)s1
A: -20.29
B: 7.471

SMILES: C[C@@H]1CN2C[C@H](O)CC2CN1Cc1ccncc1 (stereo partly specified)
A: -11.44
B: 0.2968

SMILES: Cc1nonc1CN1CC[C@@](O)(C2CCOCC2)[C@H](C)C1
B: -120.4

SMILES: Cc1ncsc1CNC(=O)N1CCN(Cc2ccccc2)CC1C (stereo unspecified)
A: 0
B: -5.251

SMILES: O=C(c1cnc(NCCC2CCCO2)c(Cl)c1)N1CCOCC1 (stereo unspecified)
A: -6.751
B: 11.05

SMILES: c1cn2c(n1)CNCC(COCC1CC1)C2 (stereo unspecified)
A: 4.548
B: -15.44

SMILES: Cc1ccc(CN(C)C(=O)CN2CCCC2Cn2cncn2)cc1 (stereo unspecified)
B: -6.175

SMILES: Cc1csc2c(=O)n(CCSc3cnn[nH]3)cnc12
B: -7.317

SMILES: CC(C)Cn1cc(NC(=O)N2CCOC(c3ccccc3)C2)cn1 (stereo unspecified)
A: 19.16
B: 25.79

SMILES: COc1ccc(Br)cc1SCCCS(C)(=O)=O
A: 16.18
B: 1.27

SMILES: CN(C)C(=O)C1CCC2(CCN(C(=O)Nc3cccc(F)c3)CC2)O1 (stereo unspecified)
A: 9.03
B: -2.372

SMILES: Cc1ccc(NC(=O)NCC2CCS(=O)(=O)C2)cc1Cl (stereo unspecified)
A: -2.29
B: 1.753

SMILES: Cc1cccc(S(=O)(=O)N2CCCc3c(c(=O)n(C)n3C)C2)c1
A: 16.14
B: -8.588

SMILES: CC(Oc1cc(Cl)cc(Cl)c1)C(=O)NCCC(=O)N(C)C (stereo unspecified)
A: -6.423
B: 18.99

SMILES: CN(C)Cc1cc(=O)n2c(n1)CN(CC1CCOCC1)CCC2
A: -22.02
B: -0.7539

SMILES: CCC(C)c1csc(NC(=O)Cc2csc(-c3nnc[nH]3)n2)n1 (stereo unspecified)
B: -5.853

SMILES: Cc1cn2nc(N3CCn4c(nnc4C(C)C)C3)sc2n1
A: -4.534
B: -49.87

SMILES: COc1ccc(C)cc1-n1ccc(C(=O)NCC2CCCOC2)n1 (stereo unspecified)
B: -14.86

SMILES: O=C(NS(=O)(=O)c1ccc2c(c1)OCCO2)c1ccc(Br)cc1F
B: -17.22

SMILES: CCc1cc(N2CCC(NCc3ccc(C)o3)CC2)ncn1
A: -0.8483
B: -16.81

SMILES: CCNC(=O)N1CCC2(CC1)CCn1c(-c3cccc(OC)c3)cnc12
A: 21.77
B: -14.71

SMILES: CCc1cnc(COc2ccc(OC3CCCCNC3=O)cc2)o1 (stereo unspecified)
B: 2.123

SMILES: CC(NC(=O)CCc1cccc(OC2CCCC2)c1)c1nncn1C (stereo unspecified)
B: 2.205

SMILES: NC(=O)c1csc(N2CCN(Cc3cccc4nsnc34)CC2)n1
A: 0.285
B: -28.04

SMILES: COc1ccc(F)c(-c2nccn2CCN2CCCC2)c1
A: 0.1018
B: 2.461

SMILES: Cc1ccc(N2CCOC(C)(C(=O)N(C)C)C2)nn1 (stereo unspecified)
A: 0.3918
B: 6.067

SMILES: OC(COCc1cccs1)CN1CCc2c(ncn2C2CC2)C1 (stereo unspecified)
A: -2.066
B: -8.745

SMILES: COc1ccccc1-n1c(C)cc(CNC(=O)NC(C)C)c1C
A: 20.21
B: 8.716

SMILES: O=c1[nH]cc(Nc2ccccc2)c(=O)[nH]1
A: -42.39
B: -0.7134

SMILES: Cn1cc(C2NC3(CCCC3)C(=O)N2CC2CC2)c(=O)n(C)c1=O (stereo unspecified)
B: 10.5

SMILES: CCOCC1CCN(C(=O)C(c2cccc(F)c2)N(C)C)CC1 (stereo unspecified)
A: -37.57
B: -16.92

SMILES: Cc1ccc(CN2CC[C@@H](NC(=O)c3cccnc3)[C@H](O)C2)o1
A: -3.74
B: 8.326

4 of the entries, repeated:

* CN(C)C(=O)C1CCC2(CCN(C(=O)Nc3cccc(F)c3)CC2)O1 (stereo unspecified) | A: 9.03%; B: -2.372%
* Cc1ncsc1CNC(=O)N1CCN(Cc2ccccc2)CC1C (stereo unspecified) | A: 0%; B: -5.251%
* Cc1ccc(CN(C)C(=O)CN2CCCC2Cn2cncn2)cc1 (stereo unspecified) | B: -6.175%
* CCC(C)c1csc(NC(=O)Cc2csc(-c3nnc[nH]3)n2)n1 (stereo unspecified) | B: -5.853%